## Screening data, single-dose tests

The filed quantity is “Percent Effect” (%).
The record does not define 0% and 100%; most values in the screen are far below 50% and negative numbers occur (in some assays of this library far below -100).
This is an unselected part of the compounds tested.
Two or more numbers in one place are separate tests of the same structure; such repeats can differ widely.
A dash means the value is not listed here; it may have been measured.

A: 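Whole-parasite assay of Trypanosoma brucei over 72 hours; the read-out is not stated. Compounds at 30 µM. Higher reads as stronger inhibition (inferred: compounds with an IC50 in retests scored well above the rest). Values scatter widely below zero; nearly all retest evidence comes from the higher of the two concentrations used. Size under these conditions: about 64,000 compounds, about 940 of them at 50% or above in at least one test.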
B: 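Cell assay of Leishmania donovani living inside macrophages; the read-out is not stated. Concentration: 30 µM. Direction is inferred from retests: higher values go with stronger inhibition. Of about 69,000 compounds tested this way, about 1,000 (1.5%) reached 50% or more in at least one test.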

structure,A,B
O=C(CCc1cc2n(n1)CCCN(Cc1ccccc1F)C2)NC1CC1,-37.53,15.06
Cc1cccc(NC(=O)NCC2(N3CCOCC3)CCSC2)c1 (centres undefined),-107.7,36.42
Cc1cccc(C(C(=O)NC(C)(C)CN2CCOCC2)N(C)C)c1 (centres undefined),-39.47,-45.9
COc1ccc(OC2CCN(C(=O)c3ccc(C)[nH]c3=O)CC2)cc1,13.95,26.55
COCc1ncc(-c2nccn2CCS(C)(=O)=O)cn1,-14.68,-16.99
O=C(CN1CCCCC1Cn1cncn1)NC1CCN(C2CC2)CC1 (centres undefined),4.279,5.407
[H][C@@]12CN(Cc3cccc(C)n3)C[C@]1([H])N(CCCN1CCOCC1)C(=O)O2,33.59,28.17
CC(C)C(Sc1nnnn1-c1ccccc1)C(=O)NCc1cccnc1 (centres undefined),-15.97,12.77
CCOCCCNC(=O)CCCC(=O)n1nc(C)c2ccccc21,-9.537,8.392
[H][C@@]12CCN(C(C)=O)C[C@]1(C(=O)NCc1cnc(C)cn1)CCO2,-69.37,27.02
CCOCCN1CCN(Cc2nnc(-c3occc3C)o2)CC1,-31.98,15.99
COc1c(C)cnc(CNC(=O)CCc2nc3ccccc3[nH]2)c1C,-1.378,22.18
O=C(NC1CCN(c2nccs2)CC1)c1cccs1,-28.32,-9.792 & -37.62
CC(C)Oc1ccccc1NC(=O)N1CCC(n2cncn2)CC1,13.54,26
CC1CCC(O)(CSc2nnnn2C2CC2)CC1 (centres undefined),-5.435,15.53
COc1ccc(C(O)CNC(=O)Cn2ccc(=O)n(C)c2=O)cc1 (centres undefined),-56.97,-11.77
Cn1cc(CNc2ncnc3c2CCN(Cc2ccsc2)CC3)cn1,25.91,7.406
CC(O)c1cccc(-n2c(CCC(=O)O)nc3ccccc32)c1 (centres undefined),6.362,14.76
CCN(CC)C(=O)NC(C)c1ccc(Oc2cccnc2)c(F)c1 (centres undefined),-24.02,-9.456
CCOc1cc(CNC(=O)c2cc(-c3ccccn3)no2)ccn1,-3.706,-28.6
Cc1nc(C)n(CC2CCCCN2CCc2ccncc2)n1 (centres undefined),-,13.07
CCc1nc(CN(C)C2CCN(CCc3cccs3)C2)no1 (centres undefined),-,41.14
CCN(C)C(=O)c1cccc(S(=O)(=O)NCCc2nc(C)cc(=O)[nH]2)c1,-46.25,5.287
CC(=O)N1CCC(C(=O)c2cnn(-c3ccccc3)c2N)C1 (centres undefined),1.013,17.34
Cc1ccsc1-c1nccn1CCN(C)S(C)(=O)=O,-31.23,7.797
N#Cc1ccc(N2CCCN(CC(=O)N3CCC3)CC2)cc1,-60.76,13.64
[H][C@]12CCCC(=O)N[C@@]1(C)CCCCN2C(=O)c1ccccn1,-9.597,3.108 & 13.68
O=C(c1cnn2cccnc12)N1CCCC(n2ccnc2)C1 (centres undefined),-11.09,-19.85
O=C(O)C(F)(F)F.O=C(O)C(F)(F)F.[H][C@@]12CCCO[C@]1([H])[C@H](Oc1ncccc1F)CN2Cc1ccco1,-0.2545,0.2133
CN(Cc1cn2c(n1)CN(CC1CC1)CC2)Cc1ccco1.O=C(O)C(F)(F)F.O=C(O)C(F)(F)F,37.55,4.956
CCC(=O)NCc1cc(Br)ccc1OC(F)F,-15.48,18.28
COc1ccnc(N2CCC3(CCCN(CC4CC4)C3=O)C2)n1 (centres undefined),-17.21,-1.649
Cc1ccc(C(=O)N2CCn3c(COCC4CC4)cnc3C2C)nc1.O=C(O)C(F)(F)F (centres undefined),5.512,27.25
Cc1ncsc1-c1nnc(C2CCCN2C(=O)Cn2cccn2)o1 (centres undefined),-13.88,13.62
Cc1cnn(CCC(=O)N2CCCC(c3nc(C)no3)C2)c1 (centres undefined),-9.659,-8.716
COC(=O)CNC(=O)CC1COc2ccc(C(=O)N(C)C)cc2N1C (centres undefined),-19.04,11.18
COc1cc(NC2CCCN(c3ncccc3C#N)C2)cc(OC)c1 (centres undefined),-1.938,-17.83
[H][C@]12CC[C@]([H])(CN(C(=O)c3cc(F)cc(Cl)c3)C1)N(Cc1ccccc1)C2,-48.52,-24.88
COc1cc(CN2CCC3(CC2)[C@H](O)C[C@@H]3OCCO)ccc1F,-16.89,29.42
Cc1ncsc1CNC(=O)N1CCN(Cc2ccccc2)C[C@H]1C,5.512,-37.5
COc1cc(C)c(C(C)Nc2ncc(C(N)=O)cc2Cl)cc1OC (centres undefined),-53.26,20.46
CCN1CC2(CCC1=O)CCN(C(=O)C(O)c1cccc(Cl)c1)CC2 (centres undefined),-4.777,24.49
Cc1nc(CCN)cc(N2CCCN(C(=O)c3ccco3)CC2)n1,-14.34,6.574
COCCc1ncc(CN2CCCC(C(=O)c3ccccc3)C2)cn1 (centres undefined),-9.677,15.45
O=S(=O)(NCCSc1nccn1C1CC1)c1ccccc1,-24.11,-6.397
CC(C)Oc1ncccc1CNC(=O)c1ccccn1,-10.08,-8.458
COc1c(C2CCCN2CC(=O)Nc2nccs2)c(C)nn1C (centres undefined),-54.94,-2.273
O=C(O)C(F)(F)F.O=C(O)C(F)(F)F.[H][C@@]12CCCO[C@]1([H])[C@H](Nc1ccccn1)CN(Cc1cc(C)on1)C2,22.9,37.53
O=C(O)C(F)(F)F.O=C(O)C(F)(F)F.O=C(O)C(F)(F)F.c1cc(CN2CCOCC3(C2)CN(Cc2nccs2)CCO3)ccn1 (centres undefined),-96.63,-5.908 & -12
CCc1nnc2n1CCN(C(=O)c1ccc(-c3ccco3)[nH]c1=O)C2,-,4.718
O=C(c1csc(-c2ccco2)n1)N1CCOc2ncccc21,-9.898,17.47
COCCN(Cc1nccs1)C(=O)c1cc(-c2ccc(C)o2)n[nH]1,-17.99,2.791
N#CCCn1cnc2c(F)cc(Br)cc2c1=O,-35.17,-29.11
O=C(O)C(F)(F)F.[H][C@@]12CCN(CC(=O)NC)C[C@]1([H])CN(C(=O)c1cccn1C)C2,-42.42,-2.605
c1ccc(-c2nc3c(c(NCCc4c[nH]cn4)n2)CCNC3)cc1,-248.7,33.29
O=C(CCCc1nc2ccccc2[nH]1)N1CCCC1c1ccncc1 (centres undefined),-31.31,-5.96
CC(C)(C)c1nc(CN2CCCC(Cn3cncn3)C2)no1 (centres undefined),8.979,4.152
CN(c1ncccc1C#N)C1CCN(Cc2ccncc2)CC1,-53.29,-7.394
CC(=O)N1CCC2(C1)CN(S(=O)(=O)c1ccccc1)C2,2.532,1.188
Cc1cc(NC(=O)NCCO)nn1-c1ccc(Cl)cc1Cl,-0.9538,34.11
Cc1nc2ccnn2c(C)c1CCC(=O)N1CCC(C(N)=O)CC1,-17.32,-4.109
O=C(C1CNCCN1C(=O)CCOc1ccccc1)N1CCOCC1 (centres undefined),-58.04,17.67
O=C1N(CC2CC2)C(c2c[nH]nc2-c2cccnc2)NC12CCCC2 (centres undefined),-22.48,5.597
CCN(CC)c1nc2ccsc2c(=O)n1CCC(=O)NCc1cccs1,2.311,43.83
CCc1nccn1CCC(=O)N1CCCC1c1cncc(NC)n1 (centres undefined),-10.97,40.36

Some entries from above, unchanged:

For Cc1ccsc1-c1nccn1CCN(C)S(C)(=O)=O the result was A: -31.23%; B: 7.797%.
For O=C1N(CC2CC2)C(c2c[nH]nc2-c2cccnc2)NC12CCCC2 (centres undefined) the result was A: -22.48%; B: 5.597%.
For [H][C@@]12CCN(C(C)=O)C[C@]1(C(=O)NCc1cnc(C)cn1)CCO2 the result was A: -69.37%; B: 27.02%.
For CCOCCN1CCN(Cc2nnc(-c3occc3C)o2)CC1 the result was A: -31.98%; B: 15.99%.
For O=C(NC1CCN(c2nccs2)CC1)c1cccs1 the result was A: -28.32%; B: -9.792% & -37.62%.
For CCc1nc(CN(C)C2CCN(CCc3cccs3)C2)no1 (centres undefined) the result was B: 41.14%.

Source: ChEMBL document CHEMBL3988442, “University of Dundee, Small-Polar-MMV Screening Library” (2021).